From PMC8931116
No constants are given. Whether binding was seen depends on the method and setting. Binding seen in cells or lysates may run through a third protein. Here binding means that the protein was enriched with, or labelled near, the bait; the list need not be complete. No binding means not detected with the bait.

Chains of the proteins cited; added tags and fusions are not shown.
UniProt Q3TKT4: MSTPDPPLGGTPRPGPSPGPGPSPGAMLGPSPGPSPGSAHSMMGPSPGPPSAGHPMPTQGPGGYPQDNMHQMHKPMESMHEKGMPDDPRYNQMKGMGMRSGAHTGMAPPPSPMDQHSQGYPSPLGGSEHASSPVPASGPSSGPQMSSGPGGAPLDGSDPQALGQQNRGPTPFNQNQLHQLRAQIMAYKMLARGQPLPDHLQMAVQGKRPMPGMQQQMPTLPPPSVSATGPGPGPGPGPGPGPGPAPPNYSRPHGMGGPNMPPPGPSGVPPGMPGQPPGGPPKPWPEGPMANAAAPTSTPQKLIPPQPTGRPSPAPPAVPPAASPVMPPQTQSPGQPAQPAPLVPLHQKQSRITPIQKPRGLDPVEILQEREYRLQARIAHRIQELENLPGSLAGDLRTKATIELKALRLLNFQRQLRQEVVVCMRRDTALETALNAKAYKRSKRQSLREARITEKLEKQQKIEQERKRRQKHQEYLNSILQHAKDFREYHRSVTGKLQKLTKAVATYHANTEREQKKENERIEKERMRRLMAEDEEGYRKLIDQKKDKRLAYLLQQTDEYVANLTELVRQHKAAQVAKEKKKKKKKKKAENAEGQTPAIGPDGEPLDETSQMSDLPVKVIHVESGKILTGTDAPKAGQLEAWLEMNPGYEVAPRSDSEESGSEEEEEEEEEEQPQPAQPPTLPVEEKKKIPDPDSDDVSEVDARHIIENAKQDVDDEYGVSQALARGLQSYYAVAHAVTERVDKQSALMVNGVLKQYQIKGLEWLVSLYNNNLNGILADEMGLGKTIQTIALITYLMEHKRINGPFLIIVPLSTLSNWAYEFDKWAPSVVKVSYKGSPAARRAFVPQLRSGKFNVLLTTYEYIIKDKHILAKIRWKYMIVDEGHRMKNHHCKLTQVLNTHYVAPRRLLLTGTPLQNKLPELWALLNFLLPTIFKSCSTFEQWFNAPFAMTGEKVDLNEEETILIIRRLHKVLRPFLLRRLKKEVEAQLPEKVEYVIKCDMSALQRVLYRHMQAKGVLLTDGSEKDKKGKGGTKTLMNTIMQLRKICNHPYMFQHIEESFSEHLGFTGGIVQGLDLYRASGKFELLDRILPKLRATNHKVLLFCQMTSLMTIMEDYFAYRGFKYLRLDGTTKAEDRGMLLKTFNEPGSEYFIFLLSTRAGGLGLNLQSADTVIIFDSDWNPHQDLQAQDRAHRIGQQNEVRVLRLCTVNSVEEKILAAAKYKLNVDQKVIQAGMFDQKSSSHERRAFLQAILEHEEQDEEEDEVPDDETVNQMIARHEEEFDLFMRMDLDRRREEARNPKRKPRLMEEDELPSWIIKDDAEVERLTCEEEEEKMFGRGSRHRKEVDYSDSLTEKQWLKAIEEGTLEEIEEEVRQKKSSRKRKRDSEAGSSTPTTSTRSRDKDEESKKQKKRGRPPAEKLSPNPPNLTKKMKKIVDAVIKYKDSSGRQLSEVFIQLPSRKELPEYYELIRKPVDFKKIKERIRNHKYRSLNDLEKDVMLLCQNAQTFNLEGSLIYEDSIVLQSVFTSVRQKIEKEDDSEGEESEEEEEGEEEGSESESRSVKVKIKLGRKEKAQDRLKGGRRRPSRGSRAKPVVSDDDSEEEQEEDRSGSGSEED
UniProt Q9Z148: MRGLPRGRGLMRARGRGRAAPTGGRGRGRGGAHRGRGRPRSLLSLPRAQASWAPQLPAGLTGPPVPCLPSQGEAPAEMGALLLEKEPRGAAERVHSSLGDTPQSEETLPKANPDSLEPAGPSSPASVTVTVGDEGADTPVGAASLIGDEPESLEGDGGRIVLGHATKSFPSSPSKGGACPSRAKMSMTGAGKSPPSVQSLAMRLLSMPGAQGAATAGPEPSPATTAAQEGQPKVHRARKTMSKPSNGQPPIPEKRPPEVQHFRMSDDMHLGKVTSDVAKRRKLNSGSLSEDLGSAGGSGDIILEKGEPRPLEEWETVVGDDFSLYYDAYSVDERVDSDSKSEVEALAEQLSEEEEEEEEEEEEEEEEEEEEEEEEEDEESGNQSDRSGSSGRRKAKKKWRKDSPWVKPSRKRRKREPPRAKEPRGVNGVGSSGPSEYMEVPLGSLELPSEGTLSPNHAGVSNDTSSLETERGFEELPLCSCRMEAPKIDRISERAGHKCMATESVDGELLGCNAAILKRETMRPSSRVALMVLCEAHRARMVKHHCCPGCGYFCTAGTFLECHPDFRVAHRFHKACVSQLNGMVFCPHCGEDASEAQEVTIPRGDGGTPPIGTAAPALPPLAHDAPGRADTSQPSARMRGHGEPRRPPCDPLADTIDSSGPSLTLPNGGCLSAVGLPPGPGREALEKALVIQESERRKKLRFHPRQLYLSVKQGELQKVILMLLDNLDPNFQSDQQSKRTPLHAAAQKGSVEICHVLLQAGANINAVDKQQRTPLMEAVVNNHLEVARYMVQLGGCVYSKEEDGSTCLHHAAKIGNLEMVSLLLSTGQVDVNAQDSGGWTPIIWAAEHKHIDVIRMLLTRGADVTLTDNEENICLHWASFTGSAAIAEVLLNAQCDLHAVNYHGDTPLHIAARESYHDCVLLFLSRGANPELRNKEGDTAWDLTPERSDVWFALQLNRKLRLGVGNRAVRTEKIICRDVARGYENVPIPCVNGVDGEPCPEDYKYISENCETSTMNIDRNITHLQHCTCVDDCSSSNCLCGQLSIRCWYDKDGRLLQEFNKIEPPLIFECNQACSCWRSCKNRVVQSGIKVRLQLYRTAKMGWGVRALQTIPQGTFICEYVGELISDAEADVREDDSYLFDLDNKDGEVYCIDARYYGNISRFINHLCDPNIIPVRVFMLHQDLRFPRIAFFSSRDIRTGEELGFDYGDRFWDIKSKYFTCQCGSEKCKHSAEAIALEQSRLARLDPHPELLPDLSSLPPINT
UniProt P13864: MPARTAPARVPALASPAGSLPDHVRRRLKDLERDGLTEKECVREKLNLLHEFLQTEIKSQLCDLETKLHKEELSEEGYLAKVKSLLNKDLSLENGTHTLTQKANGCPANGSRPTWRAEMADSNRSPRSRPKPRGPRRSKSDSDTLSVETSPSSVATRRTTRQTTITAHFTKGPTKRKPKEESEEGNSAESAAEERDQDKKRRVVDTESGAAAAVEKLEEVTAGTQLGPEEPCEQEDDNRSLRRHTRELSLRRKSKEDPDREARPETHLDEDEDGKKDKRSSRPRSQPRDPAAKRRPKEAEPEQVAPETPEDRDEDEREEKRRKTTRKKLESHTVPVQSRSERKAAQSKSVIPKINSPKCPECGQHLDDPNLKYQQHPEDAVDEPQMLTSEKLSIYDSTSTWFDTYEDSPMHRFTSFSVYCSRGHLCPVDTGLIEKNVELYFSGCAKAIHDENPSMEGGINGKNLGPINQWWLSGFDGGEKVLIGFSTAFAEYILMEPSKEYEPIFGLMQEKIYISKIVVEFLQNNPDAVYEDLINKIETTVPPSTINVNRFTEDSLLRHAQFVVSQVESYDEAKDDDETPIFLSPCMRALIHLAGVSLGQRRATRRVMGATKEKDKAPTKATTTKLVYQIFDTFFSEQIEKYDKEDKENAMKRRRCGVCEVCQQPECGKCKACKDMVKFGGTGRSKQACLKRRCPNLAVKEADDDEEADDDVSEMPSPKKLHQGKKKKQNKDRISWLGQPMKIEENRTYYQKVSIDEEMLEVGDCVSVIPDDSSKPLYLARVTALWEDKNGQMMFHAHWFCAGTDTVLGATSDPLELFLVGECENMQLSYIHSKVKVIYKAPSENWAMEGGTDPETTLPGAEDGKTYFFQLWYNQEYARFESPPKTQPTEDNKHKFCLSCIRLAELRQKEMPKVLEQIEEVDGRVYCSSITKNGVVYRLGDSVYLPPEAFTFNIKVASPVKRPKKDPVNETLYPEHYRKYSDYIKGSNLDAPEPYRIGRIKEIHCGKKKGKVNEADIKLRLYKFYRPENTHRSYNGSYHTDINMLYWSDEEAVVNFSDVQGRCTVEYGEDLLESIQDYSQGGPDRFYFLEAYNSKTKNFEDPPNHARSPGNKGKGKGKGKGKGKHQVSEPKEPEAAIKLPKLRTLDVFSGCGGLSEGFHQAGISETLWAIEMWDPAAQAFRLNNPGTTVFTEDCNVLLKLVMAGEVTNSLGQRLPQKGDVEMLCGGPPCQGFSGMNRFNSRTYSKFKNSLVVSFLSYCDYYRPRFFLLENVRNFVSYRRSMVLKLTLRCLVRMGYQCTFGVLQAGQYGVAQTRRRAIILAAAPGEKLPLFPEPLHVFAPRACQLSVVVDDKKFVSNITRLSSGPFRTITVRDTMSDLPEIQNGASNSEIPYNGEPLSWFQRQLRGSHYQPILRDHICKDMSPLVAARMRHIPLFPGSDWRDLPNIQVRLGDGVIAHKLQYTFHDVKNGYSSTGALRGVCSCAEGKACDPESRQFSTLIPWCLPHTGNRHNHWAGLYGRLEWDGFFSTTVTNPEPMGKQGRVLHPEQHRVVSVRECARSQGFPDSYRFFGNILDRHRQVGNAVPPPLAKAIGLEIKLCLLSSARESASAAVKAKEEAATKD

Target: T1, Oligodendrocyte Transcription Factor 2 OLIG2 (UniProt Q9EQW6)
T1 sequence: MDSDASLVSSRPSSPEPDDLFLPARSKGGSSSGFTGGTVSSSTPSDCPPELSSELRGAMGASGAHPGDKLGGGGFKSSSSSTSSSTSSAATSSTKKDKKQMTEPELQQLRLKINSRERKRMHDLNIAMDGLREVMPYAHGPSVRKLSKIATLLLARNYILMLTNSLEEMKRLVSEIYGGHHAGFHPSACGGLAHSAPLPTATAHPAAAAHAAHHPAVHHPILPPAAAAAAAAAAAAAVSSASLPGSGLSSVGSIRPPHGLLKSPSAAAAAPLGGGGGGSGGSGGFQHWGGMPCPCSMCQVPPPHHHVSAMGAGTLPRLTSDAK
Assay: affinity purification with mass spectrometry; brain lysates pre-cleared with protein A-Sepharose, incubated with primary antibody and protein A-coated Sepharose beads for 2 hr at 4 °C, three washes in lysis buffer; SDS-PAGE, in-gel digestion, LC-MS/MS; proteins bound to OLIG2

binding | Substance
binds | SWI/SNF chromatin remodeling enzyme SMARCA4 (also known as BRG1) (from UniProt Q3TKT4 1-1613)
binds | EHMT2 (also known as G9a) (from UniProt Q9Z148 1-1263)
no binding | DNMT1 (from UniProt P13864 1-1620)
